Taken from: PubChem BioAssay AID1259405 (NCATS, 2018)
Screen: 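Silenced genes that increase secreted GFP made by CHO cells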 (primary screen). Cell system: Chinese hamster CHO-K1 ovary cells with stable secreted eGFP expression. Reagent: single siRNA against mouse genes, 0.8 pmol siRNA per well (2 µl of 400 nM stock). Timing: 3 days. Read-out: 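Percent of the per-plate non-targeting control median for intracellular GFP per well by laser scanning cytometry and for cell viability by ATP luminescence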. Scale: GFP, % of control: higher = more GFP per well, higher productivity; viability (ATP), % of control: higher = more viable cells (more ATP). Hit rule: 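Called active when intracellular GFP, relative to negative control, is at or above 120%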.
Here is a random part of about 50,000 deposited reagents. Of all reagents, about 4,000 (8%) are marked active. 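Mouse siRNA library applied to hamster cells; one well for each siRNA.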 Reagents against one gene are numbered here.

With knock-down of Or2y17 #1 the results were GFP, % of control 140; viability (ATP), % of control 45.6; active. Against Or2y17 #2, the entry reads GFP, % of control 110; viability (ATP), % of control 65.3; inactive. Or2y17 #3 gave GFP, % of control 52; viability (ATP), % of control 102; inactive. Ifi27l2b #1 scored GFP, % of control 86.3; viability (ATP), % of control 50.6; inactive. Depletion of Ifi27l2b #2 gave: GFP, % of control 72.9; viability (ATP), % of control 61; inactive. Against Ifi27l2b #3, the values are GFP, % of control 69.5; viability (ATP), % of control 78.7; inactive.

Knock-down of Mindy2 #1 gave: GFP, % of control 73.9; viability (ATP), % of control 78.3; inactive. After knock-down of Mindy2 #2, the screen gave GFP, % of control 75.3; viability (ATP), % of control 76.9; inactive. Silencing of Mindy2 #3 gave: GFP, % of control 62.9; viability (ATP), % of control 61.8; inactive.

2 successive reagents from above, for reference:
Or2y17 #2: GFP, % of control = 110; viability (ATP), % of control = 65.3; activity call = inactive
Or2y17 #3: GFP, % of control = 52; viability (ATP), % of control = 102; activity call = inactive

The listing continues:
For Or13a20 #1, the values are GFP, % of control 90.8; viability (ATP), % of control 53.1; inactive. For Or13a20 #2, the entry reads GFP, % of control 83.9; viability (ATP), % of control 63.5; inactive. Knock-down of Or13a20 #3 came out at: GFP, % of control 135; viability (ATP), % of control 123; active. Against Slc47a1 #1, the entry reads GFP, % of control 44.5; viability (ATP), % of control 36; inactive. With knock-down of Slc47a1 #2 the results were GFP, % of control 38.8; viability (ATP), % of control 43.1; inactive. Slc47a1 #3 scored GFP, % of control 62.5; viability (ATP), % of control 91.7; inactive.

Knock-down of Apbb1 #1 resulted in: GFP, % of control 67.7; viability (ATP), % of control 62.6; inactive. Apbb1 #2 showed GFP, % of control 103; viability (ATP), % of control 91.3; inactive. Silencing of Apbb1 #3 came out at: GFP, % of control 62.4; viability (ATP), % of control 58.5; inactive. Rhox10 #1 showed GFP, % of control 84.8; viability (ATP), % of control 59.1; inactive. After knock-down of Rhox10 #2, the record shows GFP, % of control 77.5; viability (ATP), % of control 93.9; inactive. With knock-down of Rhox10 #3 the results were GFP, % of control 60.6; viability (ATP), % of control 60.9; inactive.

After knock-down of Defb7 #1, the record shows GFP, % of control 77.4; viability (ATP), % of control 85.3; inactive. Silencing of Defb7 #2 came out at: GFP, % of control 126; viability (ATP), % of control 71.7; active. With knock-down of Defb7 #3, the record shows GFP, % of control 142; viability (ATP), % of control 70.6; active. Knock-down of Neurog2 #1 gave: GFP, % of control 87; viability (ATP), % of control 97; inactive. With knock-down of Neurog2 #2, the screen gave GFP, % of control 61.1; viability (ATP), % of control 56.4; inactive. Silencing of Neurog2 #3 resulted in: GFP, % of control 69.7; viability (ATP), % of control 95.9; inactive.
